According to the supplement of paper PMC11006884:
The list shows a part of the results, in another mix than the full data.

The chains behind the UniProt entries cited, without tags or fusion partners. Where a name states a change or a piece, a line headed by the entry shows the natural chain unless it says otherwise.
UniProt O43823: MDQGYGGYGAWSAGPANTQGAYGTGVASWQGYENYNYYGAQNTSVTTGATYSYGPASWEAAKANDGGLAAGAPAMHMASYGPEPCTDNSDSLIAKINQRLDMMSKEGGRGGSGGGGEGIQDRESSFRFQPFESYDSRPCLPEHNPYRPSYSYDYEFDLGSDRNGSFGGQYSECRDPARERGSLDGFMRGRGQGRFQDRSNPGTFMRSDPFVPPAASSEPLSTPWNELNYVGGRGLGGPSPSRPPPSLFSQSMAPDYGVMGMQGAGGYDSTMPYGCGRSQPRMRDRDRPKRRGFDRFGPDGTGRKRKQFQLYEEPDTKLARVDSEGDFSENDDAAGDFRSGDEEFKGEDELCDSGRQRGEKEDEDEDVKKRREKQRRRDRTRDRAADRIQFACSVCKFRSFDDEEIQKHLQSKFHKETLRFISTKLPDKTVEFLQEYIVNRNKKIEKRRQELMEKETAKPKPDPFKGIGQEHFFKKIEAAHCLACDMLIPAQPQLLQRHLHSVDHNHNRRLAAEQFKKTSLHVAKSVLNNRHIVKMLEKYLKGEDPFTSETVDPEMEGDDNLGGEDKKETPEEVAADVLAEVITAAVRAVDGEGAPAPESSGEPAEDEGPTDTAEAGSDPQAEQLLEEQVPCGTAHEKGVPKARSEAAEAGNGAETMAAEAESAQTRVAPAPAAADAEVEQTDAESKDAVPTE
UniProt O43598: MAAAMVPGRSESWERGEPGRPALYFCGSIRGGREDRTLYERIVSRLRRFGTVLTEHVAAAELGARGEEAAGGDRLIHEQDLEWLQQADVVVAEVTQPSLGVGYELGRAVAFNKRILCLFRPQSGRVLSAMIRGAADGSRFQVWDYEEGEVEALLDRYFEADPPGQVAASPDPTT
UniProt O43933: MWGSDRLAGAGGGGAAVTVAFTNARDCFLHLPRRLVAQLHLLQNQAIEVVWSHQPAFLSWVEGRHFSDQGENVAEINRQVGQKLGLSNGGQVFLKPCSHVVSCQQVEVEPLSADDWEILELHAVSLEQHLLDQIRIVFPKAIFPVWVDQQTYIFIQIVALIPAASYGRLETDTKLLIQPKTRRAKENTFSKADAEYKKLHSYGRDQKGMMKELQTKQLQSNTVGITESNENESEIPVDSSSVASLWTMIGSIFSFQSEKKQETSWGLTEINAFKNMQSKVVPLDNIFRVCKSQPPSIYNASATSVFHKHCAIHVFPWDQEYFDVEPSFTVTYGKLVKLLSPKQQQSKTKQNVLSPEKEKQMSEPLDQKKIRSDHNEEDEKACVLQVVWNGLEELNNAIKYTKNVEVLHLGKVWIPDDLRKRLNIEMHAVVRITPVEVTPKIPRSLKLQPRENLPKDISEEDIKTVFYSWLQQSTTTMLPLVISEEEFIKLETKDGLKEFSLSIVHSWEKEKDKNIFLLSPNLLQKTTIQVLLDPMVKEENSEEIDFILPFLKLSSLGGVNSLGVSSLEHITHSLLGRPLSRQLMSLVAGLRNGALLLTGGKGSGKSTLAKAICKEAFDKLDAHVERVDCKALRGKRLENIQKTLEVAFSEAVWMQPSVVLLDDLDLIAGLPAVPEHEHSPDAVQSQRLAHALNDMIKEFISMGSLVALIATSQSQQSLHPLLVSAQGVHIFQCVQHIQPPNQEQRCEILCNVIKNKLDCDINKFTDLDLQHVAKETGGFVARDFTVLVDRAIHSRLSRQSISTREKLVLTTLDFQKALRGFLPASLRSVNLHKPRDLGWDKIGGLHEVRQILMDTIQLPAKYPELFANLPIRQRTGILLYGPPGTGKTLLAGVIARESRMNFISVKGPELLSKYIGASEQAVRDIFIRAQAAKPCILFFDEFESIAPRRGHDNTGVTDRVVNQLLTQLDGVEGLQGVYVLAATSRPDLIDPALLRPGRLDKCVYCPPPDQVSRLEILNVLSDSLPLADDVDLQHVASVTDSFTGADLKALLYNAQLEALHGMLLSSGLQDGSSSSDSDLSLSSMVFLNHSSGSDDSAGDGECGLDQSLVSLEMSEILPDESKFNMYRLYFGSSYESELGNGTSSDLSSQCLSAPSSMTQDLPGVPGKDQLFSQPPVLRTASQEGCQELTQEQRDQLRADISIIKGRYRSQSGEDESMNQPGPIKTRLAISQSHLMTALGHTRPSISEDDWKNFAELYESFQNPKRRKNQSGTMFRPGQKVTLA
UniProt O43684, whole entry: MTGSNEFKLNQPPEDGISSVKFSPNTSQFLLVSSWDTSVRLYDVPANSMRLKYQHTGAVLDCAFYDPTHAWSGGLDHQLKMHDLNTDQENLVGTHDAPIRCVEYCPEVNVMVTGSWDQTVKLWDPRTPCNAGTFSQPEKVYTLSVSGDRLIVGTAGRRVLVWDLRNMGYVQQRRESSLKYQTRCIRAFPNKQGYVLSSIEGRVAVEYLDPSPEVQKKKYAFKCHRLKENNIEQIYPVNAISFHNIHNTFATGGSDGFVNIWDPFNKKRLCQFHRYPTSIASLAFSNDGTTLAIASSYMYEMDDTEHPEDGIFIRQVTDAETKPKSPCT
UniProt O43776: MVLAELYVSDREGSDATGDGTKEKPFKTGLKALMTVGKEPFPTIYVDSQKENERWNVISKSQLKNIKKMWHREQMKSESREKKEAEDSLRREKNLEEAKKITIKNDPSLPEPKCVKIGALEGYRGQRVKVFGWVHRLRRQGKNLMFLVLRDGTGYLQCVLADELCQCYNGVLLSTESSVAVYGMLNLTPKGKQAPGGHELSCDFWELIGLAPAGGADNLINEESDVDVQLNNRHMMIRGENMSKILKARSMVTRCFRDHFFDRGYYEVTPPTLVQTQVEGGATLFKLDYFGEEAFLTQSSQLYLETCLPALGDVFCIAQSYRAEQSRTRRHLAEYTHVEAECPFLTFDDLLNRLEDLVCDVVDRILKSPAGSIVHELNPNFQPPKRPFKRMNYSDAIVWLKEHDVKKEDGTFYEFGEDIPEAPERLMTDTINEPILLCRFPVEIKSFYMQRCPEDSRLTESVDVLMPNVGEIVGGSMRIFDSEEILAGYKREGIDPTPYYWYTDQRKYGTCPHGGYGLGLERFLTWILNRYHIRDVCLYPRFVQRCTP
UniProt O75446: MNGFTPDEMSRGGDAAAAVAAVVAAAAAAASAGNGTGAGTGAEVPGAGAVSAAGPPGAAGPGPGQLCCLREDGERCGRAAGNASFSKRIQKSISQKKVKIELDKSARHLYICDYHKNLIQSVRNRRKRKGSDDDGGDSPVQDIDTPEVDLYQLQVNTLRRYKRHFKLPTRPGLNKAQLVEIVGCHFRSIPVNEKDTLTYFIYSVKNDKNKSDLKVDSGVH
UniProt O76094: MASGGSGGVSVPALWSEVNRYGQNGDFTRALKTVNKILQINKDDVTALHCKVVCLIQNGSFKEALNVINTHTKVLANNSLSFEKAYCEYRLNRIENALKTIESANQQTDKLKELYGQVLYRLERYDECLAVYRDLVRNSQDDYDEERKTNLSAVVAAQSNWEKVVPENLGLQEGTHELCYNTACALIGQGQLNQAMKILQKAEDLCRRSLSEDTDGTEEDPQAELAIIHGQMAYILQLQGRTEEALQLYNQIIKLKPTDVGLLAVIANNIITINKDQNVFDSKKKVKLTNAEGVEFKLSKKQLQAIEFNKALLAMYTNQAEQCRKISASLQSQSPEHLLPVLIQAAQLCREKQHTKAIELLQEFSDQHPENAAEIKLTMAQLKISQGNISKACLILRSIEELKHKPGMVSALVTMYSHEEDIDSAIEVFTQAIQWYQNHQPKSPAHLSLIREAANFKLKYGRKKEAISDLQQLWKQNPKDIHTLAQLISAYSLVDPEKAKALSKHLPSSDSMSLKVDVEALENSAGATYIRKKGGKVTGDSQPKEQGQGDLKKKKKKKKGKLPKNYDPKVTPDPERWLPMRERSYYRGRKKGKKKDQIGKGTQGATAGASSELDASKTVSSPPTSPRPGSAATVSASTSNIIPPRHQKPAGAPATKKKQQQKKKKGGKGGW
UniProt O75153: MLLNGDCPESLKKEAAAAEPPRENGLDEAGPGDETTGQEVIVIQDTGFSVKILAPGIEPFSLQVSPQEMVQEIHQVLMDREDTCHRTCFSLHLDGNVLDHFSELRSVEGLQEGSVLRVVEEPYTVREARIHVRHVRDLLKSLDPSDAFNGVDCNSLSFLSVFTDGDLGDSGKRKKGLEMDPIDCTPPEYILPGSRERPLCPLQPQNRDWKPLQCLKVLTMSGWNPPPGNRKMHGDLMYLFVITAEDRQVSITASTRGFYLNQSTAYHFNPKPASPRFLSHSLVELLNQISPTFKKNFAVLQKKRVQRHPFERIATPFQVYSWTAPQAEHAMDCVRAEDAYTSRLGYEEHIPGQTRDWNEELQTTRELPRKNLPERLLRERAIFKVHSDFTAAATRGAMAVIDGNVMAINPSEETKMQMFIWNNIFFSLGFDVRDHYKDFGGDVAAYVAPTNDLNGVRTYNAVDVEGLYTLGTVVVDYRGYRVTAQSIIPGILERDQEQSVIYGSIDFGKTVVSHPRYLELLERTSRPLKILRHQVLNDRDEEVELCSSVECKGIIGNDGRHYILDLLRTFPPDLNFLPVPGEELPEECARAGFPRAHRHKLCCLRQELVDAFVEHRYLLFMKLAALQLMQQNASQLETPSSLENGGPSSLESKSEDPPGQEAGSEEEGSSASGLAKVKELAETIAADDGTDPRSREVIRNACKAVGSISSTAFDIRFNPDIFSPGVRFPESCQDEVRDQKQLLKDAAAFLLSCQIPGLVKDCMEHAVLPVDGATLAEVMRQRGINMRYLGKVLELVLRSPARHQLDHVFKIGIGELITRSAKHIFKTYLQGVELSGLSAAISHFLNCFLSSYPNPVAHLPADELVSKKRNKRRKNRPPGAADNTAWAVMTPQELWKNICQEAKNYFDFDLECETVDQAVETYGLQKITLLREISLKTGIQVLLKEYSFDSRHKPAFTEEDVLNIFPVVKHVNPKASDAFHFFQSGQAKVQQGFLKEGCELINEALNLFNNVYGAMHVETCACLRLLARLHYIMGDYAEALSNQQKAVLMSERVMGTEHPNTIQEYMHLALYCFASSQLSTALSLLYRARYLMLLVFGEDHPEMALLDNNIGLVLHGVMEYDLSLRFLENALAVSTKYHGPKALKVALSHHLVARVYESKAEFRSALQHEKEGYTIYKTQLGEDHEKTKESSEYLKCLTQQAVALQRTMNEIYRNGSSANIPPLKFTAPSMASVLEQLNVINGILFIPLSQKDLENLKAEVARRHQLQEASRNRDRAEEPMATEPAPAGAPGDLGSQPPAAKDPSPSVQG
UniProt O75534: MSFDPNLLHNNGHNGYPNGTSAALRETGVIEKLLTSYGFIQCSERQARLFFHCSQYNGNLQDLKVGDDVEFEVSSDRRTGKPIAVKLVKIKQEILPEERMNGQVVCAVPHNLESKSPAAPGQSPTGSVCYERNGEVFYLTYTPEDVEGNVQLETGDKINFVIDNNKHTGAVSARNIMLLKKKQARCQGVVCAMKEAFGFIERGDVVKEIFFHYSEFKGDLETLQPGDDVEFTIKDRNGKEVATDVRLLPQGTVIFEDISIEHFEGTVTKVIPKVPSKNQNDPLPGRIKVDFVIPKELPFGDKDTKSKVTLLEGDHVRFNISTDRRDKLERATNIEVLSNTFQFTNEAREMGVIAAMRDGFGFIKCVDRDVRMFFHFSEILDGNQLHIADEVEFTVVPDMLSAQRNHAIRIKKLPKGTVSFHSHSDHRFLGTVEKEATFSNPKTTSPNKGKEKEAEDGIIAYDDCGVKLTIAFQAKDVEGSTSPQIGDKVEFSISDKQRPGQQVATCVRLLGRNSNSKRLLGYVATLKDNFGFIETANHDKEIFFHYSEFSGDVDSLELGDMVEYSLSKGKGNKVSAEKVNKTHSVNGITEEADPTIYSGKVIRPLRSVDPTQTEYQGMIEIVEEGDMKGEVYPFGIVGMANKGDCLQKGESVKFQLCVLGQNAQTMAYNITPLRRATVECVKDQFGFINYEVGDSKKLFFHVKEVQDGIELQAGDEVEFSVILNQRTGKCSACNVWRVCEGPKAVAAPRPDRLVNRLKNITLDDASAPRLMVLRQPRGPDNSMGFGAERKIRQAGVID

compound: COC(=O)C#Cc1ccccc1 [methyl 3-phenylpropiolate]; experiment: log2 ratio of iodoacetamide-alkyne labeling of the cysteine site, DMSO over compound (competition); higher = stronger covalent engagement of the cysteine by the compound, active = 1 or more; settings: 500 µM; treatment time 1 h; system: HEK293T cell lysate
Outline: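 HEK293T lysate (2 mg/mL) was treated with DMSO or electrophile (500 µM, 1 h, ambient temperature), then iodoacetamide alkyne (1 h), clicked to sCIP-TMT reagents, pooled, trypsin-digested overnight at 37 °C, streptavidin-enriched and acid-eluted. Peptides were run on Orbitrap Eclipse LC-MS/MS with FAIMS and quantified in FragPipe. The log2 competition ratio per cysteine is mean control-channel over mean compound-channel reporter intensity. Duplicate channels and three replicates were used, and cysteines quantified in only one replicate were excluded.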

log2 ratio of iodoacetamide-alkyne labeling, active:
UniProt O75528_C7 1.05
AKAP8 C275 (UniProt O43823) 1.06
FLNB C455 (UniProt O75369) 1.24

log2 ratio of iodoacetamide-alkyne labeling, inactive:
UniProt O43432_C461 0.428
SMARCA5 C165 (UniProt O60264) 0.251
LRCH4 C134 (UniProt O75427) 0.323
TOM1 C37 (UniProt O60784) 0.537
UniProt O43598_C26 0.038
HTATSF1 C480 (UniProt O43719) 0.879
SNX2 C413 (UniProt O60749) 0.162
WDR1 C170 (UniProt O75083) 0.73
PEX1 C1185 (UniProt O43933) 0.601
UniProt O60232_C73 0.131
AP1G1 C31 (UniProt O43747) 0.0722
RRP9 C296 (UniProt O43818) 0.3
BUB3 C129 (UniProt O43684) 0.176
NPM3 C105 (UniProt O75607) 0.636
SNRNP200 C502 (UniProt O75643) 0.356
NBN C487 (UniProt O60934) 0.78
SNRNP200 C133 (UniProt O75643) 0.0987
NCOR1 C1274 (UniProt O75376) 0.329
RECQL4 C511 (UniProt O94761) 0.0234
UTP20 C2058 (UniProt O75691) 0.539
ERAL1 C278 (UniProt O75616) 0.471
UniProt O43776_C537 0.106
SGTA C153 (UniProt O43765) -0.0876
SAP30 C184 (UniProt O75446) 0.513
SRP72 C349 (UniProt O76094) -0.113
SNX3 C140 (UniProt O60493) 0.116
SF3B1 C677 (UniProt O75533) 0.316
UniProt O75153_C153 0.605
FLNB C660 (UniProt O75369) 0.476
UniProt O75153_C88 0.201
KPNA6 C208 (UniProt O60684) 0.479
CSDE1 C42 (UniProt O75534) -0.0192
ACTN4 C499 (UniProt O43707) 0.424
NMT2 C104 (UniProt O60551) 0.453

Already shown: an excerpt of the list.
log2 ratio of iodoacetamide-alkyne labeling, inactive:
HTATSF1 C480 (UniProt O43719) 0.879
SNX2 C413 (UniProt O60749) 0.162
WDR1 C170 (UniProt O75083) 0.73
PEX1 C1185 (UniProt O43933) 0.601
UniProt O60232_C73 0.131
AP1G1 C31 (UniProt O43747) 0.0722
RRP9 C296 (UniProt O43818) 0.3
